Laboratory results reported in publication PMC8799692.
These are yes or no findings as the source states them, for the method shown. In cells and extracts the contact can be indirect. These calls come from enrichment with a bait or labelling near it, and not all partners need be listed.

Amino acid sequences for entries named in this document (tags omitted).
UniProt P09405: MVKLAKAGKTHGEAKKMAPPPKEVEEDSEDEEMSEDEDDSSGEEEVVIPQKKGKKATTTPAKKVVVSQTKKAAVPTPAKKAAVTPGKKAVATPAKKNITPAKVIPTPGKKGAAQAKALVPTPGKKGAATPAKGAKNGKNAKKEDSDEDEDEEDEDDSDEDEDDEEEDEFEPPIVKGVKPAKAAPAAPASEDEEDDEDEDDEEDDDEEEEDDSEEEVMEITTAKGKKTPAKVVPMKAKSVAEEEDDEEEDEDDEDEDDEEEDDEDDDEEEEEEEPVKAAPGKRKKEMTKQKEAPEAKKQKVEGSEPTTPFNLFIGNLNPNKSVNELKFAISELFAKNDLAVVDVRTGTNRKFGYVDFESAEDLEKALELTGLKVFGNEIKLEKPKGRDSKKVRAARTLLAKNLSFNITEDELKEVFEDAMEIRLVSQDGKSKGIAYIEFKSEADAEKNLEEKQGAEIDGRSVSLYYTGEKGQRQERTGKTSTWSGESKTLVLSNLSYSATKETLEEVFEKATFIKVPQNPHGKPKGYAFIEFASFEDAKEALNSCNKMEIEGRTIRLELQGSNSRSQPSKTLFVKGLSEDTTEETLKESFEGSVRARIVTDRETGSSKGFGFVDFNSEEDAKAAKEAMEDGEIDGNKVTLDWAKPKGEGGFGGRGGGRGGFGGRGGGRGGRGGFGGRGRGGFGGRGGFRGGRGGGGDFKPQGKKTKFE

Biological target: T1, ARAF (mouse (endogenous in NRAS-mutated murine melanoma cells)) (UniProt P04627)
T1 sequence: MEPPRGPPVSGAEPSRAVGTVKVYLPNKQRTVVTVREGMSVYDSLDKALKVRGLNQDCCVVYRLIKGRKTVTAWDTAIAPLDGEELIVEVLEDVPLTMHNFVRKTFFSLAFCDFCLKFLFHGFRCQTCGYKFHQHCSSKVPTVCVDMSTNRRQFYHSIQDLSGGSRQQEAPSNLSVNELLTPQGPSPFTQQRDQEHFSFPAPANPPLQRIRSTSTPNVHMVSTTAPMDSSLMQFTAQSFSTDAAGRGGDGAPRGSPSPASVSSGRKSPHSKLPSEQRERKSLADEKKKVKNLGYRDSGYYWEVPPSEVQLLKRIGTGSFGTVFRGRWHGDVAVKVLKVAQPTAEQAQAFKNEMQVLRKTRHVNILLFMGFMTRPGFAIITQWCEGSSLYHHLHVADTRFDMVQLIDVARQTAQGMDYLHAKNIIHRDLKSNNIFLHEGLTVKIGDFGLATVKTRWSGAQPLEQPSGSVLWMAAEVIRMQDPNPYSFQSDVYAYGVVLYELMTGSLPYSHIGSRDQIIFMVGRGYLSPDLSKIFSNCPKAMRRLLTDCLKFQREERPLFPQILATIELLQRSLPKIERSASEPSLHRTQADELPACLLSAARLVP
Experiment: affinity purification with mass spectrometry; endogenous ARAF immunoprecipitated (ARAF antibody, protein-A magnetic beads, 4 °C, 4 hours) from 1 mg NP40-buffer lysate of ARAF-only cells against control cells with shRNA against ARAF; label-free quantification

binding | Substance
binds | Microphtalmia-associated transcription factor (MITF) (from UniProt Q08874-8)
binds | NCL (from UniProt P09405 1-707)
binds | PARP
